The target in the assay is HopA1 from Pseudomonas syringae pv. syringae strain 61 (HopA1_(Pss61)), in pDEST32 (Pseudomonas syringae pv. syringae strain 61). Briefly: two-hybrid; pDEST32-hopA1_(Pss61) and pDEST22-RPS6 transformed together into yeast strain PJ69-4A; SD media (-Trp-Leu, -Trp-Leu-His), 30 °C, examined 4 days later.

No constants are given. Whether binding was seen depends on the method and setting.

B1: … TO PSEUDOMONAS SYRINGAE6 (RPS6, At5g46470), CDS in pDEST22 (protein, UniProt F4KHH8 1-1127)
chain: MASSSSSSSRNWSYHVFPSFSGEDVRNTFLSHFLKELDRKLIISFKDNEIERSQSLDPELKHGIRNSRIAVVVFSKTYASSSWCLNELLEIVKCKKEFGQLVIPIFYNLDPSHVRKQTGDFGKIFEKTCRNKTVDEKIRWKEALTDVANILGYHIVTWDNEASMIEEIANDILGKMNISPSNDFEDLVGIEDHITKMSSLLHLESEEVRMVGIWGPSGIGKTTIARALFSRLSCQFQSSVFIDKVFISKSMEVYSGANLVDYNMKLHLQRAFLAEIFDKKDIKIHVGAMEKMVKHRKALIVIDDLDDQDVLDALADQTQWFGSGSRIIVVTENKHFLRANRIDHIYKVCLPSNALALEMFCRSAFKKNSPPDDFLELSSEVALRAGNLPLGLNVLGSNLRGINKGYWIDMLPRLQGLDGKIGKTLRVSYDGLNNRKDEAIFRHIACIFNGEKVSDIKLLLANSNLDVNIGLKNLVDRSLICERFNTLEMHSLLQELGKEIVRTQSNQPGEREFLVDLKDICDVLEHNTGTKKVLGITLDIDETDELHIHESSFKGMHNLLFLKIYTKKLDQKKKVRWHLPERFDYLPSRLRLLRFDRYPSKCLPSNFHPENLVKLQMQQSKLEKLWDGVHSLAGLRNMDLRGSRNLKEIPDLSMATNLETLKLSSCSSLVELPSSIQYLNKLNDLDMSYCDHLETIPSGVNLKSLDRLNLSGCSRLKSFLDIPTNISWLDIGQTADIPSNLRLQNLDELILCERVQLRTPLMTMLSPTLTRLTFSNNPSFVEVPSSIQNLYQLEHLEIMNCRNLVTLPTGINLDSLISLDLSHCSQLKTFPDISTNISDLNLSYTAIEEVPLSIEKLSLLCYLDMNGCSNLLCVSPNISKLKHLERADFSDCVELTEASWNGSSSEMVKLLPADNFSTVKLNFINCFKLDLTALIQNQTFFMQLILTGEEVPSYFTHRTSGDSISLPHISVCQSFFSFRGCTVIDVDSFSTISVSFDIEVCCRFIDRFGNHFDSTDFPGYFITTKLGGHLVVFDCYFPFNEEFTTFLDGQFNYDHVDIQFRLTNDNSQLKLKGCGILLSEDVPSLDNRPCSPNILPGVCEDSALERRSFRTKMRMMRMRLLKKLLNR
Turning to B1, the binding entry is recorded as “no binding”.

Values taken from article PMC8145104.
